The target in the experiment is C-terminally V5-tagged US10 (HEK293T) (human cytomegalovirus, strain Merlin). Nature of the experiment: co-IP.

No constants are given. Whether binding was seen depends on the method and setting. In cells and extracts the contact can be indirect. Binding calls can cover weak binding; strength is not graded here. Where a sequence is shown, tags or fusion partners need not be part of it.

Here are results for one molecule from publication PMC6959991.

B1: C-terminally HA-tagged LRFN3 (protein, UniProt Q9BTN0 17-628)
chain: SSPPQSATPSPCPRRCRCQTQSLPLSVLCPGAGLLFVPPSLDRRAAELRLADNFIASVRRRDLANMTGLLHLSLSRNTIRHVAAGAFADLRALRALHLDGNRLTSLGEGQLRGLVNLRHLILSNNQLAALAAGALDDCAETLEDLDLSYNNLEQLPWEALGRLGNVNTLGLDHNLLASVPAGAFSRLHKLARLDMTSNRLTTIPPDPLFSRLPLLARPRGSPASALVLAFGGNPLHCNCELVWLRRLAREDDLEACASPPALGGRYFWAVGEEEFVCEPPVVTHRSPPLAVPAGRPAALRCRAVGDPEPRVRWVSPQGRLLGNSSRARAFPNGTLELLVTEPGDGGIFTCIAANAAGEATAAVELTVGPPPPPQLANSTSCDPPRDGDPDALTPPSAASASAKVADTGPPTDRGVQVTEHGATAALVQWPDQRPIPGIRMYQIQYNSSADDILVYRMIPAESRSFLLTDLASGRTYDLCVLAVYEDSATGLTATRPVGCARFSTEPALRPCGAPHAPFLGGTMIIALGGVIVASVLVFIFVLLMRYKVHGGQPPGKAKIPAPVSSVCSQTNGALGPTPTPAPPAPEPAALRAHTVVQLDCEPWGPGHEPVGP
Regarding B1, the binding result was “binds”.
